The numbers were not newly measured in patent publication US20230414583A1, “LYSERGIC ACID DERIVATIVES WITH MODIFIED LSD-LIKE ACTION” (Mind Medicine, Inc., priority 2022, published 2023), which cites them from elsewhere.

For this data set the following is noted: humans, cited from earlier work.

Regarding `CCN(CC)C(=O)[C@@H]1C=C2c3cccc4[nH]cc(c34)C[C@H]2N(C)C1` [LSD, 9,10-Didehydro-N,N-diethyl-6-methylergoline-8R-carboxamide], the “duration of action (acute effects)” value was 8 to 12 h. Moreover, where the note is “psychoactive doses”, the “time of peak subjective effects” value was 2 to 4 h and the “time to appearance of subjective effects” value was 15 to 60 min.
